According to US20070010489A1 (priority 2002, published 2007):
At least one structure is not confirmed: it was looked up by name or label, or the drawing left a doubt.

What was measured:
84V90M [1] = target: T1, 84V90M (Human immunodeficiency virus type 1 group M subtype B, UniProt P04585, I572V/L578M); type: biochemical, HIV; conditions: Enzymatic assay
84V90M [2] = target: T1, 84V90M; set-up: species or system HIV; conditions: Cell-based assay (MT-4)

Structure (SMILES)	IC50 (84V90M [1])	EC50 (84V90M [2])
Nc1cccc(CN2C(=O)N(Cc3cccc(C(=O)O)c3)C(Cc3ccccc3)C(O)C(O)C2Cc2ccccc2)c1 (stereo not shown)	299 nM	> 6000 nM
CCOP(=O)(CCCNC(=O)c1cccc(CN2C(=O)N(Cc3cccc(N)c3)C(Cc3ccccc3)C(O)C(O)C2Cc2ccccc2)c1)OCC (stereo not shown)	29 nM	824 nM
